The other results are listed elsewhere or left out. Values are raw readings; no control value is given beside them.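 Primary screen: polymyxin B was added at a level permeabilizing Salmonella outer membranes while sparing inner membranes. DMSO wells, both with and without polymyxin B, established maximum growth. Plate-to-plate variation meant each plate was ranked on its own, and the lowest-OD600 compounds were selected as hits.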
Test system: Salmonella enterica serovar Typhimurium SL1344
Test: bacterial growth OD600 after 18 h with compound and polymyxin B; higher = more bacterial growth (less inhibition)
Settings: 50 µM, Mueller-Hinton broth

Row | Compound | bacterial growth OD600 (polymyxin B 0.75 µg/mL) | bacterial growth OD600 (polymyxin B 1 µg/mL)
1 | CCCN(CC1CCCO1)C(=O)C1CCN(c2nc(C)c3ccc(S(C)(=O)=O)cc3n2)CC1 (centres undefined) | 0.779 | –
2 | Cc1ccccc1CCN1CCC(CN(C(=O)c2snnc2C)C2CCCC2)CC1 | – | 0.757
3 | CCOC(=O)C1(CCOc2ccccc2)CCCN(C(=O)CCc2c(C)noc2C)C1 (centres undefined) | – | 0.768
4 | COC(=O)CCCC(=O)N1CCCC(N(C)Cc2ccccc2)C1 (centres undefined) | – | 0.971
5 | CN(Cc1ccccc1)C(=O)c1csc2nc(-c3cccc(F)c3)cn12 | 0.005 | –
6 | O=C(c1cccs1)C1CCCN(Cc2nc(Cc3ccccc3F)no2)C1 (centres undefined) | – | 0.907
7 | COC(=O)CCCC(=O)N1CCCC(Nc2ccc(F)c(F)c2)C1 (centres undefined) | – | 0.89
8 | CN(C)C1(C(=O)NCc2c(F)cccc2Cl)Cc2ccccc2C1 | – | 1.23
9 | CSc1ccc(CNC(C)c2cnc(-c3ccncc3)nc2C)cc1 (centres undefined) | – | 0.864

Source: the supplement of paper PMC12889115
